The source of these data is patent US20230265201A1 (published 2023).

These are yes or no findings as the source states them, for the method shown. For part of these data: Binding can be weak; no strength is given.

In assay [1] the target is human-mouse CD70 chimera chim-3 (Flag-TNC-CD70). Description: ELISA on anti-Flag-captured chimera, anti-human-Fc-HRP. On the technique in general: ELISA stands for enzyme-linked immunosorbent assay.
Assay [2] has as its target human-mouse CD70 chimera chim-2 (Flag-TNC-CD70). The assay is described as above.
Assay [3] addresses human-mouse CD70 chimera chim-4 (Flag-TNC-CD70). The assay is described as above.
Assay [4] concerns the target cynomolgus monkey Flag-TNC-CD70 (cynomolgus monkey). Description: CD27-CD70 inhibition ELISA.
The target of assay [5] is human-mouse CD70 chimera chim-2.4 (Flag-TNC-CD70). Kind of assay: ELISA on anti-Flag-captured chimera.
Assay [6] addresses human-mouse CD70 chimera chim-1 (Flag-TNC-CD70). Kind of assay: ELISA on anti-Flag-captured chimera.
Assay [7] concerns the target human-mouse CD70 chimera chim-2.2 (Flag-TNC-CD70). Description: ELISA on anti-Flag-captured chimera.
Assay [8] has as its target human-mouse CD70 chimera chim-2.3 (Flag-TNC-CD70). Kind of assay: ELISA on anti-Flag-captured chimera.
The target of assay [9] is human-mouse CD70 chimera chim-2.1 (Flag-TNC-CD70). Description: ELISA on anti-Flag-captured chimera.

B1: ARGX-110 (non-fucosylated human IgG1 of germlined 27B3 clone 41D12) (antibody, V domains shown)
VH: EVQLVESGGGLVQPGGSLRLSCAASGFTFSVYYMNWVRQAPGKGLEWVSDINNEGGTTYYADSVKGRFTISRDNSKNSLYLQMNSLRAEDTAVYYCARDAGYSNHVPIFDSWGQGTLVTVSS
VL: QAVVTQEPSLTVSPGGTVTLTCGLKSGSVTSDNFPTWYQQTPGQAPRLLIYNTNTRHSGVPDRFSGSILGNKAALTITGAQADDEAEYFCALFISNPSVEFGGGTQLTVLG
notes: also called ARGX-100; 41D12 (ARGX-110)
B1: the binding entry was “no binding (tested: dilution series from 10 µg/ml)” in assay [1]; “no binding (tested: dilution series from 10 µg/ml)” in assay [2]; “no binding (tested: dilution series from 10 µg/ml)” in assay [3]; “binds” in [4]; “binds” in assay [5]; “binds” in [6]. Besides, the binding result in assay [7], in assay [8] and in assay [9] was “binds” throughout.
